The assay addresses T1, CREPT, endogenous in human colon cancer cells (human (endogenous in HCT116 and DLD-1)) (UniProt Q9NQG5).
T1 sequence: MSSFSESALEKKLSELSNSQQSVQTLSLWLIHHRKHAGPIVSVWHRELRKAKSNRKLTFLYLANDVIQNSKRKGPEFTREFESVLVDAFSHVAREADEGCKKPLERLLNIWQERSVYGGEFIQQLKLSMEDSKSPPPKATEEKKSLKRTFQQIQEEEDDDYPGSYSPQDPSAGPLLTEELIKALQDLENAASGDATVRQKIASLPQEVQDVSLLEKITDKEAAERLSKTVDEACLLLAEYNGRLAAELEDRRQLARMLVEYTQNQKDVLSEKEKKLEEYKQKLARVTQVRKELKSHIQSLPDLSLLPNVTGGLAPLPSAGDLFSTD
In words: co-IP; endogenous proteins, anti-CREPT antibody, RIPA lysis; cells released from double thymidine block for the indicated times.

By UniProt entry, the sequences of proteins in these tests, tags left out.
UniProt P01106: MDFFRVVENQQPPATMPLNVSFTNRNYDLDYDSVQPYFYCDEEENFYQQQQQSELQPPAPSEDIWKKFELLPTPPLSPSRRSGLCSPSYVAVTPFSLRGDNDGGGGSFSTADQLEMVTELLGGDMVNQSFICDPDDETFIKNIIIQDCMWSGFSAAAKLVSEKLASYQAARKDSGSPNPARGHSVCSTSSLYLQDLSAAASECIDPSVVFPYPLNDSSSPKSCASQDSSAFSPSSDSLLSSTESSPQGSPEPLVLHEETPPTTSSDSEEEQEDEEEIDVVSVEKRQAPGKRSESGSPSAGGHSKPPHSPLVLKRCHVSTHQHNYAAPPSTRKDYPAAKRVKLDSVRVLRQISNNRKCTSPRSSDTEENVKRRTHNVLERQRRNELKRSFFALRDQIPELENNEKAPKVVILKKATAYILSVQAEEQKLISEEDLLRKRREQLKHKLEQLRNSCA

These are yes or no findings as the source states them, for the method shown. Binding seen in cells or lysates may run through a third protein. Some binding calls cover weakened binding; strength is not graded here.

For the substance “MYC, endogenous in human colon cancer cells (from UniProt P01106 1-454)”, the binding entry is “binds”.

For the origin of these results see paper PMC11730240.
